# Assay results as given in the supplement of paper PMC8728848.
# Some of the results follow.
# Assays:
# Assay in all cases: glycan array binding signal (z-score within array); higher = stronger binding
# Settings in all cases: glycan notation: IUPAC condensed, linker removed
# [1] = target: Fuc(a1-2)Gal(b1-4)GlcNAc(b1-2)[Fuc(a1-2)Gal(b1-4)GlcNAc(b1-4)]Man(a1-3)[Fuc(a1-2)Gal(b1-4)GlcNAc(b1-2)Man(a1-6)]Man(b1-4)GlcNAc(b1-4)GlcNAc
# In short: (§1)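 Negative Z-scores can be read as non-binding. The Z-score is calculated within each array and then averaged across arrays of one protein sequence at different concentrations or buffers and across linkers. Arrays, 3228 in all, were curated from the Consortium for Functional Glycomics database and kept only where the protein sequence was available.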
# [2] = target: Fuc(a1-2)Gal(b1-4)GlcNAc(b1-3)Gal(b1-4)GlcNAc
# In short: as §1
# [3] = target: Fuc(a1-2)Gal(b1-4)GlcNAc(b1-3)Gal(b1-4)GlcNAc(b1-2)Man(a1-3)[Fuc(a1-2)Gal(b1-4)GlcNAc(b1-3)Gal(b1-4)GlcNAc(b1-2)Man(a1-6)]Man(b1-4)GlcNAc(b1-4)GlcNAc
# In short: as §1
# [4] = target: Fuc(a1-2)Gal(b1-4)GlcNAc(b1-3)Gal(b1-4)GlcNAc(b1-3)Gal(b1-4)GlcNAc
# In short: as §1
# [5] = target: Fuc(a1-2)Gal(b1-4)GlcNAc(b1-3)GalNAc
# In short: as §1
# [6] = target: Fuc(a1-2)Gal(b1-4)GlcNAc(b1-3)[Fuc(a1-2)Gal(b1-4)GlcNAc(b1-6)]GalNAc
# In short: as §1
# [7] = target: Fuc(a1-2)Gal(b1-4)GlcNAc(b1-3)[Fuc(a1-3)[Gal(b1-4)]GlcNAc(b1-6)]Gal(b1-4)Glc
# In short: as §1
# [8] = target: Fuc(a1-2)Gal(b1-4)GlcNAc(b1-6)GalNAc
# In short: as §1
# [9] = target: Fuc(a1-2)Gal(b1-4)GlcNAc6S
# In short: as §1
# [10] = target: Fuc(a1-2)Gal(b1-4)[Fuc(a1-3)]GlcNAc
# In short: as §1
# [11] = target: Fuc(a1-2)Gal(b1-4)[Fuc(a1-3)]GlcNAc(b1-2)Man(a1-3)[Fuc(a1-2)Gal(b1-4)[Fuc(a1-3)]GlcNAc(b1-2)Man(a1-6)]Man(b1-4)GlcNAc(b1-4)GlcNAc
# In short: as §1
# [12] = target: Fuc(a1-2)Gal(b1-4)[Fuc(a1-3)]GlcNAc(b1-2)Man(a1-3)[Fuc(a1-2)Gal(b1-4)[Fuc(a1-3)]GlcNAc(b1-2)Man(a1-6)]Man(b1-4)GlcNAc(b1-4)[Fuc(a1-6)]GlcNAc
# In short: as §1
# [13] = target: Fuc(a1-2)Gal(b1-4)[Fuc(a1-3)]GlcNAc(b1-2)[Fuc(a1-2)Gal(b1-4)[Fuc(a1-3)]GlcNAc(b1-4)]Man(a1-3)[Fuc(a1-2)Gal(b1-4)[Fuc(a1-3)]GlcNAc(b1-2)Man(a1-6)]Man(b1-4)GlcNAc(b1-4)GlcNAc
# In short: as §1
# [14] = target: Fuc(a1-2)Gal(b1-4)[Fuc(a1-3)]GlcNAc(b1-3)Gal(b1-4)[Fuc(a1-3)]GlcNAc
# In short: as §1
# [15] = target: Fuc(a1-2)Gal(b1-4)[Fuc(a1-3)]GlcNAc(b1-3)Gal(b1-4)[Fuc(a1-3)]GlcNAc(b1-3)Gal(b1-4)[Fuc(a1-3)]GlcNAc
# In short: as §1
# [16] = target: Fuc(a1-2)Gal(b1-4)[Fuc(a1-3)]GlcNAc(b1-3)GalNAc
# In short: as §1
# [17] = target: Fuc(a1-2)Gal(b1-4)[Fuc(a1-3)]GlcNAc(b1-3)[Neu5Ac(a2-6)Gal(b1-4)GlcNAc(b1-6)]Gal(b1-4)Glc
# In short: as §1
# [18] = target: Fuc(a1-2)Gal3S(b1-4)GlcNAc
# In short: as §1
# [19] = target: Fuc(a1-2)Gal6S(b1-3)GlcNAc
# In short: as §1
# [20] = target: Fuc(a1-2)Gal6S(b1-3)GlcNAc6S
# In short: as §1
# Fuc(a1-2)Gal6S(b1-4)Glc = target: Fuc(a1-2)Gal6S(b1-4)Glc
# In short: as §1
# [21] = target: Fuc(a1-2)Gal6S(b1-4)Glc6S
# In short: as §1
# [22] = target: Fuc(a1-2)Gal6S(b1-4)GlcNAc
# In short: as §1
# Fuc(a1-2)[Gal(a1-3)]Gal = target: Fuc(a1-2)[Gal(a1-3)]Gal
# In short: as §1
# [23] = target: Fuc(a1-2)[Gal(a1-3)]Gal(b1-3)GalNAc
# In short: as §1
# [24] = target: Fuc(a1-2)[Gal(a1-3)]Gal(b1-3)GalNAc(b1-3)Gal(a1-4)Gal(b1-4)Glc
# In short: as §1
# [25] = target: Fuc(a1-2)[Gal(a1-3)]Gal(b1-3)GlcNAc
# In short: as §1
# [26] = target: Fuc(a1-2)[Gal(a1-3)]Gal(b1-3)GlcNAc(b1-2)Man(a1-3)[Fuc(a1-2)[Gal(a1-3)]Gal(b1-3)GlcNAc(b1-2)Man(a1-6)]Man(b1-4)GlcNAc(b1-4)GlcNAc
# In short: as §1
# [27] = target: Fuc(a1-2)[Gal(a1-3)]Gal(b1-3)GlcNAc(b1-2)Man(a1-3)[Fuc(a1-2)[Gal(a1-3)]Gal(b1-3)GlcNAc(b1-2)Man(a1-6)]Man(b1-4)GlcNAc(b1-4)[Fuc(a1-6)]GlcNAc
# In short: as §1
# [28] = target: Fuc(a1-2)[Gal(a1-3)]Gal(b1-3)GlcNAc(b1-3)GalNAc
# In short: as §1
# [29] = target: Fuc(a1-2)[Gal(a1-3)]Gal(b1-3)GlcNAc(b1-6)GalNAc
# In short: as §1
# [30] = target: Fuc(a1-2)[Gal(a1-3)]Gal(b1-4)Glc
# In short: as §1
# [31] = target: Fuc(a1-2)[Gal(a1-3)]Gal(b1-4)GlcNAc
# In short: as §1
# [32] = target: Fuc(a1-2)[Gal(a1-3)]Gal(b1-4)GlcNAc(b1-2)Man
# In short: as §1
# [33] = target: Fuc(a1-2)[Gal(a1-3)]Gal(b1-4)GlcNAc(b1-2)Man(a1-3)[Fuc(a1-2)[Gal(a1-3)]Gal(b1-4)GlcNAc(b1-2)Man(a1-6)]Man(b1-4)GlcNAc(b1-4)GlcNAc
# In short: as §1
# [34] = target: Fuc(a1-2)[Gal(a1-3)]Gal(b1-4)GlcNAc(b1-2)Man(a1-3)[Fuc(a1-2)[Gal(a1-3)]Gal(b1-4)GlcNAc(b1-2)Man(a1-6)]Man(b1-4)GlcNAc(b1-4)[Fuc(a1-6)]GlcNAc
# In short: as §1
# [35] = target: Fuc(a1-2)[Gal(a1-3)]Gal(b1-4)GlcNAc(b1-3)GalNAc
# In short: as §1
# [36] = target: Fuc(a1-2)[Gal(a1-3)]Gal(b1-4)GlcNAc(b1-3)[Fuc(a1-2)[Gal(a1-3)]Gal(b1-4)GlcNAc(b1-6)]GalNAc
# In short: as §1
# [37] = target: Fuc(a1-2)[Gal(a1-3)]Gal(b1-4)GlcNAc(b1-6)GalNAc
# In short: as §1
# [38] = target: Fuc(a1-2)[Gal(a1-3)]Gal(b1-4)[Fuc(a1-3)]Glc
# In short: as §1
# [39] = target: Fuc(a1-2)[Gal(a1-3)]Gal(b1-4)[Fuc(a1-3)]GlcNAc
# In short: as §1
# [40] = target: Fuc(a1-2)[Gal(a1-3)]Gal(b1-4)[Fuc(a1-3)]GlcNAc(b1-3)GalNAc
# In short: as §1
# [41] = target: Fuc(a1-2)[Gal(a1-4)]Gal(b1-4)GlcNAc
# In short: as §1
# [42] = target: Fuc(a1-2)[GalNAc(a1-3)]Gal
# In short: as §1
# [43] = target: Fuc(a1-2)[GalNAc(a1-3)]Gal(b1-3)GalNAc(a1-3)[Fuc(a1-2)]Gal(b1-4)GlcNAc
# In short: as §1
binder,measurement,setting,value
"BabA (Helicobacter pylori), O52269_HELPY (protein) AEDDGFYMSAGYQIGEAAQMVKNTKGIQELSDNYENLSNLLTRYSTLNTLIKLSADPSAVNAARENLGASAKNLIGDTKNSPAYQAVLLAINAAVGFWNVVGYVTQCGGNANGQKSTSSTTIFNNEPGYRSTSITCSLNGHMPGYYGPMSIENFKKLNEAYQILQTALKNGLPALKENNGTVNVTYSYTCSGEGNDNCSLQTTGVTNQNNGTKTETQTIDGKSVTTTISSKVVDSQ",glycan array binding signal (z-score),[1],0.235
same,glycan array binding signal (z-score),[2],0.271
same,glycan array binding signal (z-score),[3],0.717
same,glycan array binding signal (z-score),[4],-0.631
same,glycan array binding signal (z-score),[5],-0.627
same,glycan array binding signal (z-score),[6],-0.691
same,glycan array binding signal (z-score),[7],-0.3
same,glycan array binding signal (z-score),[8],0.344
same,glycan array binding signal (z-score),[9],0.682
same,glycan array binding signal (z-score),[10],1.17
same,glycan array binding signal (z-score),[11],-1.18
same,glycan array binding signal (z-score),[12],0.862
same,glycan array binding signal (z-score),[13],0.98
same,glycan array binding signal (z-score),[14],-0.317
same,glycan array binding signal (z-score),[15],-0.502
same,glycan array binding signal (z-score),[16],0.299
same,glycan array binding signal (z-score),[17],-0.409
same,glycan array binding signal (z-score),[18],-0.373
same,glycan array binding signal (z-score),[19],-0.346
same,glycan array binding signal (z-score),[20],0.635
same,glycan array binding signal (z-score),Fuc(a1-2)Gal6S(b1-4)Glc,-0.218
same,glycan array binding signal (z-score),[21],0.093
same,glycan array binding signal (z-score),[22],0.283
same,glycan array binding signal (z-score),Fuc(a1-2)[Gal(a1-3)]Gal,-0.529
same,glycan array binding signal (z-score),[23],-0.182
same,glycan array binding signal (z-score),[24],0.444
same,glycan array binding signal (z-score),[25],0.081
same,glycan array binding signal (z-score),[26],-0.46
same,glycan array binding signal (z-score),[27],0.381
same,glycan array binding signal (z-score),[28],-0.3
same,glycan array binding signal (z-score),[29],-0.228
same,glycan array binding signal (z-score),[30],-0.146
same,glycan array binding signal (z-score),[31],-0.002
same,glycan array binding signal (z-score),[32],-0.6
same,glycan array binding signal (z-score),[33],0.039
same,glycan array binding signal (z-score),[34],-0.046
same,glycan array binding signal (z-score),[35],-0.201
same,glycan array binding signal (z-score),[36],-0.273
same,glycan array binding signal (z-score),[37],-0.437
same,glycan array binding signal (z-score),[38],-0.328
same,glycan array binding signal (z-score),[39],0.075
same,glycan array binding signal (z-score),[40],-0.664
same,glycan array binding signal (z-score),[41],0.263
same,glycan array binding signal (z-score),[42],-0.267
same,glycan array binding signal (z-score),[43],-0.7

# Quoted at random: 2 records from the list.
binder,measurement,setting,value
"BabA (Helicobacter pylori), O52269_HELPY (protein) AEDDGFYMSAGYQIGEAAQMVKNTKGIQELSDNYENLSNLLTRYSTLNTLIKLSADPSAVNAARENLGASAKNLIGDTKNSPAYQAVLLAINAAVGFWNVVGYVTQCGGNANGQKSTSSTTIFNNEPGYRSTSITCSLNGHMPGYYGPMSIENFKKLNEAYQILQTALKNGLPALKENNGTVNVTYSYTCSGEGNDNCSLQTTGVTNQNNGTKTETQTIDGKSVTTTISSKVVDSQ",glycan array binding signal (z-score),[18],-0.373
same,glycan array binding signal (z-score),[24],0.444
